This is one part of the list. The main result of the screen is listed elsewhere. These columns were measured beside it and carry no call. The list favours compounds with an active or inconclusive main result. The note in brackets gives the kind of curve behind each potency; many fits are weak.
Experiment: qHTS Assay for Lipid Storage Modulators in Drosophila S3 Cells;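 on cell number change: cells counted by Cell Tracker Red CMTPX staining in the red channel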
Conditions: BODIPY lipid droplet fluorescence, 18-24 h; for cell number change: measured here: cell count max response, cells fed with added oleic acid
Method in brief: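 Laser-scanning cytometry quantifies lipid droplet accumulation (500–530 nm total intensity; droplet/cell object ratio) in oleic acid-fed (400 uM added) Drosophila S3 cells treated with a concentration series. 20 uM Triacsin C defined 100% inhibition.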

[1] = measured here: lipid fluorescence (Fed channel) AC50, cells fed with added oleic acid
[2] = measured here: cell number channel AC50, cells fed with added oleic acid

N#Cc1cc([N+](=O)[O-])ccc1Oc1cccc(/C=N/NC(=O)c2ccc(Cl)cc2)c1
cell number change: 2.71%

CN(CC(=O)N1CC=C(c2ccccc2)CC1)S(=O)(=O)c1ccc2c(c1)c(=O)n(C)c(=O)n2C
cell number change: 9.4%
AC50 [1]: 10.3 µM [rising, single point]

C=CCn1c(C(CC)CC)nc2ccccc21
cell number change: 29.7%
AC50 [2]: 0.00461 µM [rising, full curve, poor fit]

Cc1cccc(N2CCN(C(=O)c3cccc(NC4=NC5CS(=O)(=O)CC5S4)c3)CC2)c1C (configuration not stated)
cell number change: 8.07%
AC50 [1]: 0.164 µM [falling, full curve, poor fit]

O=C(COc1ccccc1Cl)N1CCc2ccccc21
cell number change: 11.7%
AC50 [1]: 18.4 µM [rising, single point]

COc1cccc(C(=O)NNc2c3ccccc3nc3ccccc23)c1
cell number change: -15.9%
AC50 [1]: 29.1 µM [falling, single point]

O=C(N1CCCC1)n1c(Cc2ccccc2)nc2ccccc21
AC50 [2]: 1.16 µM [falling, full curve]

CCOc1ccc(NS(=O)(=O)c2ccc(C(=O)N(C)CCc3ccc(OC)c(OC)c3)cc2)cc1
cell number change: -25.7%

Cc1[nH]n(-c2ccccc2)c(=O)c1C=NCCc1ccccc1
cell number change: -15.3%
AC50 [1]: 5.17 µM [falling, single point]

CCOC(=O)c1c(NC(=O)COC(=O)c2ccc(C)s2)sc2c1CC(C)(C)NC2(C)C
cell number change: -34.4%
AC50 [2]: 16.4 µM [falling, single point]

COc1ccc(C(=O)N[C@H](C(=O)OCn2nnc3ccccc3c2=O)C(C)C)cc1
cell number change: 5.49%
AC50 [1]: 0.00517 µM [rising, full curve, poor fit]

N#CC1=C(Nc2ccccc2Cl)SC(c2ccccc2O)NC1=O (configuration not stated)
cell number change: -47.8%
AC50 [2]: 20.6 µM [falling, single point]
AC50 [1]: 29.1 µM [falling, single point]

c1ccc(C2CSc3ccccc3N2)cc1 (configuration not stated)
cell number change: -39%
AC50 [2]: 20.6 µM [falling, single point]
AC50 [1]: 8.2 µM [falling, partial curve]

CC(C)(C)OC(=O)Nc1ccc([C@@H](NC(=O)OC(C)(C)C)C(=O)OC(C)(C)C)cc1
cell number change: -0.678%
AC50 [1]: 0.146 µM [rising, single point]

CCOC(=O)C1=C(C)N=c2s/c(=C\C(=O)OC)c(=O)n2C1c1ccc(OC)cc1 (configuration not stated)
cell number change: -27%

O=C(O)C(Cc1c[nH]c2ccccc12)NS(=O)(=O)c1ccc(Br)cc1 (configuration not stated)
cell number change: -2.7%
AC50 [1]: 0.0259 µM [falling, full curve, poor fit]

COc1ccccc1CNC(=O)CN(c1cccc([N+](=O)[O-])c1)S(C)(=O)=O
cell number change: -37.6%
AC50 [2]: 2.06 µM [falling, partial curve, poor fit]
AC50 [1]: 1.64 µM [falling, partial curve, poor fit]

CCCCOc1ccc(C(=O)N/C(=C\c2ccc([N+](=O)[O-])cc2)C(=O)OCc2ccco2)cc1
cell number change: 14.8%
AC50 [1]: 0.164 µM [falling, full curve]

Cc1[nH]c2c(Br)cccc2c1[C@H]1[C@@H](CC#N)C1(C)C
AC50 [2]: 6.51 µM [rising, single point]
AC50 [1]: 6.51 µM [rising, single point]

COc1cc(C(=O)Nc2c(C(=O)N3CCOCC3)oc3ccccc23)cc(OC)c1OC
cell number change: 7.67%

COc1cc(C(=S)N2CCOCC2)ccc1OC(=O)c1ccccc1C
cell number change: -40.9%
AC50 [2]: 10.3 µM [falling, partial curve, poor fit]

Cc1cc(NC(=O)CCC(=O)N(CC(=O)NC2CCCC2)c2ccc(F)c(Cl)c2)no1
cell number change: -24.8%
AC50 [1]: 0.206 µM [rising, single point]

CCCC(=O)Nc1nc2ccc(NC(=O)c3c(F)c(F)c(OC)c(F)c3F)cc2s1
cell number change: -32.9%

CNC(=S)NNC(=O)c1cccc(N(C)C)c1
cell number change: -16.5%
AC50 [1]: 0.1 µM [falling, full curve, poor fit]

COc1ccc(C2CC(c3ccc(Br)cc3)Nc3nc(N)nn32)cc1 (configuration not stated)
cell number change: 30.3%
AC50 [2]: 1.64 µM [rising, partial curve, poor fit]
AC50 [1]: 29.1 µM [rising, partial curve, poor fit]

O=C1NC(=O)/C(=C\c2ccccc2OCc2cccc([N+](=O)[O-])c2)N1
cell number change: 1.54%

Cc1nnc(SCC(=O)NC(=O)NC(C)(C)C)s1
AC50 [1]: 5.8 µM [falling, single point]

O=[N+]([O-])c1ccccc1/C=N/N1CCN(c2ccc(Cl)cc2)CC1
cell number change: 9.41%

COc1ccc(C(=O)/C=C/C(=O)N(Cc2ccc(F)cc2)C(C(=O)NC2CCCCC2)c2ccncc2)c(O)c1 (configuration not stated)
cell number change: 7.56%
AC50 [1]: 1.3 µM [rising, full curve]

O=C(NCc1nnc(SCC(=O)N2CCCC2)o1)c1ccccc1F
cell number change: 12.2%
AC50 [1]: 6.51 µM [falling, single point]

CCOC(=O)c1c(C)[nH]c(C)c1C(=O)COC(=O)/C=C/c1cccc(C(F)(F)F)c1
cell number change: -4.1%

Cc1c(Br)c(C(F)(F)F)nn1CC(=O)N(C)C1CCCCC1
cell number change: 5.13%
AC50 [1]: 29.1 µM [rising, single point]

Cc1sc2ncnc(NCC(C)(C)N3CCOCC3)c2c1C
cell number change: -29.9%
AC50 [1]: 6.51 µM [rising, single point]

Cc1cc(Oc2cc(NN3CCCCC3)c([N+](=O)[O-])cc2[N+](=O)[O-])c(C(=O)c2ccccc2)cc1Cl
cell number change: -8.41%
AC50 [1]: 20.6 µM [falling, single point]

CCCCn1c(SCc2cccc([N+](=O)[O-])c2)nc2ccsc2c1=O
cell number change: 9.01%
AC50 [1]: 4.11 µM [rising, full curve]

COc1ccccc1C1NC(=O)NC(C)=C1C(=O)OC1CCC(C)CC1 (configuration not stated)
cell number change: -33.4%
AC50 [2]: 23.1 µM [falling, single point]
AC50 [1]: 29.1 µM [falling, single point]

O=C(O)CCC(=O)N1N=C(c2ccc(Br)cc2)CC1c1ccc(Br)cc1 (configuration not stated)
cell number change: -3.38%
AC50 [1]: 0.164 µM [falling, full curve, poor fit]

COC(=O)c1cc(OC)c(OC)cc1NC(=S)N1CCCCC1
cell number change: 25.3%
AC50 [2]: 0.58 µM [rising, full curve, poor fit]

COc1cc(C(C)=O)ccc1OCC(=O)Nc1ccc2nc(C)sc2c1
cell number change: -31.9%
AC50 [2]: 0.164 µM [falling, full curve]
AC50 [1]: 0.116 µM [falling, full curve]

CCN(CC)CCCNC(=O)c1c(O)c2cc(F)cc3c2n(c1=O)C(C)CC3 (configuration not stated)
cell number change: 57.4%
AC50 [2]: 29.1 µM [rising, single point]

S=c1sc(SCCOc2ccccc2)nn1-c1ccccc1
cell number change: 7.1%
AC50 [1]: 0.58 µM [rising, partial curve]

O=C(O)c1cc(NC(=O)c2ccc3c(c2)C(=O)N(Cc2ccccc2)C3=O)cc(C(=O)O)c1
cell number change: -6.49%
AC50 [1]: 29.1 µM [rising, single point]

O=C(Nc1ccccc1C(=O)O)c1cccc(S(=O)(=O)Nc2ccc(Br)cc2)c1
cell number change: -14.2%

CCOC(=O)c1c(C)[nH]c(C)c1C(=O)CSc1nc(N)cc(=O)[nH]1
cell number change: -42.6%
AC50 [2]: 25.9 µM [falling, single point]
AC50 [1]: 29.1 µM [falling, single point]

CCOc1ncccc1C(=O)OCc1ccc(C(=O)OC)cc1
cell number change: 9.79%

CC(C)Cn1c(SCC(=O)NC(=O)NC2CCCC2)nc2ccccc21
cell number change: -26.9%
AC50 [1]: 6.51 µM [rising, single point]

COc1ccc(F)cc1S(=O)(=O)Nc1ccc(C)cc1
cell number change: 27.9%
AC50 [1]: 1.84 µM [rising, partial curve, poor fit]

CCC1CN(C(=O)NCc2cccc(OC)c2)c2cc(Cl)ccc2O1 (configuration not stated)
cell number change: 19.1%
AC50 [1]: 16.4 µM [rising, single point]

Cc1ccccc1C(=O)c1cccn1CC(=O)NCc1ccc(Cl)cc1
cell number change: 29.9%
AC50 [2]: 1.84 µM [rising, full curve, poor fit]
AC50 [1]: 3.26 µM [rising, partial curve]

O=C(OCC(=O)c1ccc(Cl)cc1Cl)c1cnccn1
cell number change: 30.2%
AC50 [2]: 0.0651 µM [rising, full curve, poor fit]

CC1CCCC(C)N1C(=O)Cn1c(SCC(=O)Nc2ccc3c(c2)OCO3)nc2ccccc21 (configuration not stated)
cell number change: 3.82%
AC50 [2]: 0.461 µM [rising, single point]

CCC(c1nnnn1Cc1ccco1)N(Cc1cc2cc(C)cc(C)c2[nH]c1=O)CC1CCCO1 (configuration not stated)
cell number change: 2.65%
AC50 [1]: 1.84 µM [rising, partial curve]

CC(=O)c1cccc(OCc2cc(C(=O)N(C)CCC3CCOCC3)no2)c1
cell number change: -19.3%
AC50 [1]: 4.61 µM [rising, partial curve, poor fit]

COc1ccc(Cl)cc1-n1c(C)cc(C(=O)OCC(=O)N2CC(=O)Nc3ccccc32)c1C
cell number change: 20%
AC50 [1]: 6.51 µM [rising, full curve]

CCn1cc(C(=O)OC(C)C(=O)Nc2c(C)n(C)n(-c3ccccc3)c2=O)c(=O)c2ccc(C)nc21 (configuration not stated)
cell number change: 48.1%
AC50 [2]: 23.1 µM [rising, single point]
AC50 [1]: 11.6 µM [rising, single point]

Cc1ccc(C(C)(O)CS(=O)(=O)Cc2ccccc2Cl)cc1 (configuration not stated)
cell number change: 52.3%

CCOC(=O)c1c(C)[nH]c(C)c1C(=O)COC(=O)c1ccc(Cl)c(S(=O)(=O)NCc2ccccc2)c1
AC50 [2]: 0.164 µM [rising, full curve, poor fit]
AC50 [1]: 0.411 µM [rising, full curve]

O=C(Nc1cc(Cl)ccc1F)C1=COCCO1
cell number change: 38.2%
AC50 [2]: 14.6 µM [rising, single point]

Source: PubChem BioAssay AID2685 (National Center for Advancing Translational Sciences (NCATS), 2010)
